At least one structure is not confirmed: it was looked up by name or label, or the drawing left a doubt.
Tests used:
Type in all cases: cell-based, human
ERK = test: Phosphokinase array / Western blot for phosphorylated ERK in OCSCs; conditions: SP600125 10 μM, TRX-E-002-1 0.2 μM, 2 hours
Protocol: (§1) SDS-PAGE and Western blots were performed using 20 μg of total protein lysate as described in Kamsteeg, et al., 2003, Oncogene 22:2611-2620. Antibodies used were: mouse anti-phospho ERK (Santa Cruz Biotechnology, Inc., Dallas, Tex.); rabbit anti-phospho c-Jun, rabbit anti c-Jun, rabbit anti-ERK, rabbit anti-cleaved caspase 3 all from Cell Signaling Technology, Danvers, Mass.; and mouse anti-GAPDH (Sigma-Aldrich).
(§2) In order to elucidate the early pathways responsible for the sustained cytotoxic effect observed with TRX-E-002-1, a phosphokinase array was performed. The phosphokinase array detected relative phosphorylation levels of 43 different kinases involved in major signal transduction pathways.
(§3) The western blot results also validated the decrease in p-ERK in cells treated with TRX-E-002-1. […] The effect on the phosphorylation status of the kinases (upregulation of p-cJun and downregulation of p-ERK) was observed as early as 2 h post-treatment and maintained up to 24 h (FIG. 4A). The phosphorylation levels of c-Jun and ERK correlate with the differential ability of the two doses of TRX-E-002-1 to induce a sustained cytotoxic effect. […] This correlates with the ability of this dose of TRX-E-002-1 to maintain the upregulation of p-cJun and downregulation of p-ERK even when the compound is removed (FIG. 4B). […]

OCSCs = test: Cell death of OCSCs with JNK or ERK pathway inhibitor; conditions: SP600125 10 μM, TRX-E-002-1 0.2 μM, 24 hour time-point
Protocol: Effect of each compound on cell morphology, growth, and viability was assessed using a kinetic live cell imaging system (Incucyte, Essen Bioscience). Proliferation was calculated as previously described (Alvero, et al., 2011, Mol. Cancer Ther. 10:1385-1393) using metrics from either confluence or fluorescent count from nuclear-restricted RFP or GFP. Cell death was quantified; similarly CELLTOX® Green Cytotoxicity Assay (Promega, Madison, Wis.). IC50 was calculated as described using GraphPad Prism (GraphPad Software Inc., LaJolla, Calif.).
Jun N-terminal kinase (JNK) is a stress-activated protein kinase and the main kinase that phosphorylates c-Jun. To determine whether the JNK/Jun pathway is involved in TRX-E-002-1-induced cell death, the JNK inhibitor SP600125 (1,9-Pyrazoloanthrone; a reversible ATP competitive inhibitor selective for JNK 1, 2, and 3) was used. Cells were treated with TRX-E-002-1 in the presence or absence of SP600125.
To determine the importance of downregulating the levels of p-ERK, cells were treated with U0126 (1,4-diamino-2,3-dicyano-1,4-bis(2-aminophenylthio)butadiene) to recapitulate the effect of TRX-E-002-1 on the ERK pathway.

c-Jun = test: Phosphokinase array / Western blot for phosphorylated and total c-Jun in OCSCs; conditions: SP600125 10 μM pretreatment 30 mins, TRX-E-002-1 0.2 μM, 2 hours
Protocol: as §1, §2, §3

Oc1c2ccccc2c2c3c(cccc13)N=N2 [SP600125, 1,9-Pyrazoloanthrone] was tested, and the “effect of co-treatment on ability of TRX-E-002-1 to downregulate p-ERK” value (ERK) was “did not affect”, the “effect of co-treatment on TRX-E-002-1-induced cell death” value (OCSCs) was “rescued” and the “effect of co-treatment on TRX-E-002-1-induced increase in p-c-Jun” value (c-Jun) was “abrogated”.

— patent US10265294B2, “Compositions and methods for treating epithelial cancer” (YALE UNIVERSITY, priority 2016, dated 2019)
